Binding data for two molecules are collected here from paper doi:10.1101/2023.11.29.569176.

Assay [1] concerns the target DivIVA-miniTurbo (Bdellovibrio bacteriovorus HD100). Description: proximity labelling.
In assay [2] the target is RomR-miniTurbo (Bdellovibrio bacteriovorus HD100). Kind of assay: proximity labelling.

These are yes or no findings as the source states them, for the method shown. Binding seen in cells or lysates may run through a third protein. These calls come from enrichment with a bait or labelling near it, and not all partners need be listed.

B1: HptG (protein, UniProt P61184 1-625)
chain: MAKQVQNFNAEIKQLLDIVIHSLYSHKEIFLRELLSNASDAIDKLKFNSLTHPSLLPENWQPAIRLEPNSETKTLKIIDNGIGMTQEEVVEFIGTIARSGAKAFMQMNAEMKTKPELIGQFGVGFYSAFMVADRVTLHTQKAGSNDGTVWESMGDGTYSLDSVPRPEGTGTTITLHMKDFKEEDEVQNFTDKWVLKSLVKKYSDFIAHPIKMMGETEEETLNSQKALWLKSPSEVTKEEYKEFYQHLTHDWNEPLRTVHYRAEGTMEFNALLYVPGKKPWNYNMRDMEYGLSLYIKRVFIMADCKDLLPPYLRFVKGLVDSSDLSLNVSRELLQQDRQVTQIRKNVTNKALSTLKDLLTKERSAYEDFWTEFGATLKEGLPSDAANKEKLQDLLLFHSTSSDKMTTMDEYVARMKETQKDIYYITGDSLSQVSNSPYLEKLKEKGFEVLLLVDPVDEWVVDALSEFKGKKLQSIMREGLDLDTAEEKQQKEQEKKQAEVTLKPVLESMKKTLESDVKDVVLSDRLTNTPACLVASSADPSAHMQKLMAQMGKEYAGQQVKRIMEINPNHPVFEKMLKASPEQQTKWAEILYAQALLTEGSNLPDPVKFSQQIAELMVQAADSTKH
On to B1, for which, in assay [1], the binding entry was “binds”.

B2: MglA (Bd3734) (protein, UniProt Q6MH29 1-197)
chain: MSFINYNAKEIHCKVVYYGPSLGGKTTNIQWVYQKTAEDQKSKLVALNTDIERTLFFDFLPLNVGDIRGFKTRFHLYTVPGQVVYDASRKLILKGLDGVIFVADSQIERMDENLESLRNLERNLEQQGYDIREIPLIMQYNKRDLPNVASLAELRSALNPYNAPEIEGCASEGRGVFESLKTVSKSIINVLKGGTTL
In the case of B2, in assay [2], the binding result is listed as “binds”.
